Experimental data as given in doi:10.1101/2023.06.16.545386.
No constants are given. Whether binding was seen depends on the method and setting. In cells and extracts the contact can be indirect. Some results given as binding are weak or reduced against the parent protein; the word gives no strength.

Sequences of proteins named here, by UniProt entry; tags and fusion partners are left off.
UniProt Q93034: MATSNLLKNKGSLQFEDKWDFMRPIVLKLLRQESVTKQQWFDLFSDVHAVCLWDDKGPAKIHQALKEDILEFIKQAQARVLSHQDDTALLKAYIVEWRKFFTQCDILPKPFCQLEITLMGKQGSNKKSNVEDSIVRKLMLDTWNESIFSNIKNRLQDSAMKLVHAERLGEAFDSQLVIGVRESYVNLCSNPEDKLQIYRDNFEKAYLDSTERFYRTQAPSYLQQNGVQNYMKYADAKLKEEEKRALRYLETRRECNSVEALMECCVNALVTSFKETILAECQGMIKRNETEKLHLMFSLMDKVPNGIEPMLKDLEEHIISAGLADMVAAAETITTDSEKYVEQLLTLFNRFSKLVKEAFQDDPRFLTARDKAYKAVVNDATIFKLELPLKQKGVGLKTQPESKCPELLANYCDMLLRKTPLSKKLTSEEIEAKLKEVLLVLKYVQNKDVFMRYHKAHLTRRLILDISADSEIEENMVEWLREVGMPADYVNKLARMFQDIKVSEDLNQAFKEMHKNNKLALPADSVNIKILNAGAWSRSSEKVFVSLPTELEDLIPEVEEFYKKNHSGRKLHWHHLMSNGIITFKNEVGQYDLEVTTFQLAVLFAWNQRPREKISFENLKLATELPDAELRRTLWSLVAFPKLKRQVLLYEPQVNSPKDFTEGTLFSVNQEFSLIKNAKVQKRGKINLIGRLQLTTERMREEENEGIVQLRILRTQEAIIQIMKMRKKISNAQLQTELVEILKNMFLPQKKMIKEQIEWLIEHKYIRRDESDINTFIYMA
UniProt Q9UBF6: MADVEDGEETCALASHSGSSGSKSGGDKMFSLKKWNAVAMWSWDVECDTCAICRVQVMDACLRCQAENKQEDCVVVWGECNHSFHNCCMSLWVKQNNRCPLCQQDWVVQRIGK

Biological target: 3xFlag-tagged CUL5 (UniProt Q93034)
Experiment: co-IP; FLAG beads loaded with 5 mg lysate of iPSC-derived neurons overexpressing CUL5-3xFlag or GFP-FLAG; 20 mM HEPES NaOH pH 7.4, 150 mM NaCl, 0.2% NP40; 4 °C, 2 hours; eluate blotted

binding: binds
Substance: RNF7 (from UniProt Q9UBF6 1-113)
